This test concerns BDF1 mice, B16 melanoma s.c., survival/tumor T/C. The test is described as follows: NCI In Vivo Anticancer Drug Screen. Data for tumor model B16 Melanoma (subcutaneous) in B6D2F1 (BDF1) mice. As for the experimental part: The antitumor activity of compounds was measured in mice bearing transplantable tumors. Survival or tumor size were measured and the results are expressed as the measurement made in the treated group (T) divided by the measurement made in the vehicle treated control group (C). The tumor model used in this assay is B16 Melanoma (subcutaneous) in B6D2F1 (BDF1) mice

Where [1] appears, read: T/C endpoint: median survival time, dose: 3.0 mg/kg/injection, schedule: Q01DX009 (ip), vehicle: saline, higher T/C = longer survival.
The mark [2] stands for this setting: T/C endpoint: median survival time, dose: 6.0 mg/kg/injection, schedule: Q01DX009 (ip), vehicle: saline, higher T/C = longer survival.
Setting [3] is: T/C endpoint: median survival time, dose: 160.0 mg/kg/injection, schedule: Q01DX009 (ip), vehicle: water, higher T/C = longer survival.
[4] abbreviates: T/C endpoint: median survival time, dose: 0.13 mg/kg/injection, schedule: Q01DX009 (ip), vehicle: saline, higher T/C = longer survival.
The mark [5] stands for this setting: T/C endpoint: median survival time, dose: 0.25 mg/kg/injection, schedule: Q01DX009 (ip), vehicle: saline, higher T/C = longer survival.
The mark [6] stands for this setting: T/C endpoint: median survival time, dose: 1.0 mg/kg/injection, schedule: Q01DX009 (ip), vehicle: saline, higher T/C = longer survival.
The mark [7] stands for this setting: T/C endpoint: median survival time, dose: 1.0 mg/kg/injection, schedule: Q08DX002 (ip), vehicle: saline, higher T/C = longer survival.
[8] abbreviates: T/C endpoint: median survival time, dose: 2.0 mg/kg/injection, schedule: Q08DX002 (ip), vehicle: saline, higher T/C = longer survival.
The mark [9] stands for this setting: T/C endpoint: median survival time, dose: 4.0 mg/kg/injection, schedule: Q08DX002 (ip), vehicle: saline, higher T/C = longer survival.

The list is a part of this screen's results and no random one: it is rich in T/C values a quarter to a half above the control, in often repeated tests (any T/C) and in doses without a T/C. Further doses and runs are listed elsewhere. T/C: endpoint of the treated group in % of that of the vehicle group. Schedule codes are those of the source, read here as Q, the interval in days (D) or hours (H), X, the number of doses. Some doses have a count of surviving animals in place of a T/C: the source files T/C as zero there, which appears to mark a toxic dose or a test without result, not a measured value. Some doses without a T/C left all or most animals alive at the check, yet need not have been tolerated: the source hardly ever lists a survival T/C far under the control, and the zero likely stands for such cases as well. Counts of survivors are from the toxicity check (mostly the fifth day) where no day follows; animals may have died later. Some entries were tested several times; the results are listed from low to high. Some molecules as drawn cover several salts, stereoisomers or complexes of the source; a dose is that of the sample tested. Additions like (4×) stand for listed records that agree. Where survival is the endpoint, this PubChem deposit counts one and a half times the control or more as active, and values a quarter to a half above the control carry no call in these data; other NCI protocols may use other cut-offs. Some T/C values carry the count of animals alive at the toxicity check (mostly the fifth day); without a count, all were alive then.

`CCOC(=O)C(CC(C)C)NC(=O)C(Cc1ccc(N(CCCl)CCCl)cc1)NC(C)=O` (centres undefined): the survivor count was 9 of 10 (T/C endpoint: median survival time, dose: 8.0 mg/kg/injection, schedule: Q01DX009 (ip), vehicle: other, higher T/C = longer survival); 10 of 10 (T/C endpoint: median survival time, dose: 32.0 mg/kg/injection, schedule: Q01DX009 (ip), vehicle: other, higher T/C = longer survival); 9 of 10 (T/C endpoint: median survival time, dose: 64.0 mg/kg/injection, schedule: Q01DX009 (ip), vehicle: other, higher T/C = longer survival); 9 of 10 (T/C endpoint: median survival time, dose: 128.0 mg/kg/injection, schedule: Q01DX009 (ip), vehicle: other, higher T/C = longer survival); 10 of 10 (T/C endpoint: median survival time, dose: 256.0 mg/kg/injection, schedule: Q01DX009 (ip), vehicle: other, higher T/C = longer survival).

For `CC1=C(/C=C/C(C)=C/C=C/C(C)=C/CO)C(C)(C)CCC1`, the survivor count was 10 of 10 (T/C endpoint: median survival time, dose: 4.0 mg/kg/injection, schedule: Q01DX009 (ip), vehicle: saline with Tween-80, higher T/C = longer survival); 10 of 10 (T/C endpoint: median survival time, dose: 8.0 mg/kg/injection, schedule: Q01DX009 (ip), vehicle: saline with Tween-80, higher T/C = longer survival); 9 of 10 and 10 of 10 (T/C endpoint: median survival time, dose: 128.0 mg/kg/injection, schedule: Q01DX009 (ip), vehicle: saline with Tween-80, higher T/C = longer survival). Also, the T/C (T/C endpoint: median survival time, dose: 64.0 mg/kg/injection, schedule: Q01DX009 (ip), vehicle: saline with Tween-80, higher T/C = longer survival) is 126 % of control.

With `Nc1ncn(C2OC(CO)C(O)C2O)c(=O)n1` (centres undefined), the T/C reads like this: (T/C endpoint: median survival time, dose: 0.75 mg/kg/injection, schedule: Q01DX009 (ip), vehicle: saline, higher T/C = longer survival) 90, 105, 109, 112, 116, 166 % of control; (T/C endpoint: median survival time, dose: 1.5 mg/kg/injection, schedule: Q01DX009 (ip), vehicle: Klucel (hydroxypropylcellulose) (HPC), higher T/C = longer survival) 133 % of control; (T/C endpoint: median survival time, dose: 1.5 mg/kg/injection, schedule: Q01DX009 (ip), vehicle: saline, higher T/C = longer survival) 95, 108, 113, 120, 121, 148 % of control; (T/C endpoint: median survival time, dose: 1.6 mg/kg/injection, schedule: Q01DX009 (ip), vehicle: saline, higher T/C = longer survival) 126 % of control [9 of 10 alive]; under setting [1], 112, 120, 130, 134, 138 % of control; under setting [2], 109, 110, 132 % of control. In addition, where the note is “T/C endpoint: median survival time, dose: 10.0 mg/kg/injection, schedule: Q01DX001 (ip), vehicle: saline, higher T/C = longer survival”, the T/C is 132 % of control. For the same compound, the survivor count (T/C endpoint: median survival time, dose: 3.0 mg/kg/injection, schedule: Q01DX009 (ip), vehicle: Klucel (hydroxypropylcellulose) (HPC), higher T/C = longer survival) is 6 of 6; the survivor count under setting [1] is listed as 6 of 6; the survivor count (T/C endpoint: median survival time, dose: 6.0 mg/kg/injection, schedule: Q01DX009 (ip), vehicle: Klucel (hydroxypropylcellulose) (HPC), higher T/C = longer survival) was 6 of 6; the survivor count under setting [2] is 4 of 6 and 6 of 6; the survivor count (T/C endpoint: median survival time, dose: 6.4 mg/kg/injection, schedule: Q01DX009 (ip), vehicle: saline, higher T/C = longer survival) is reported as 10 of 10; the survivor count (T/C endpoint: median survival time, dose: 12.8 mg/kg/injection, schedule: Q01DX009 (ip), vehicle: saline, higher T/C = longer survival) was 3 of 10. Besides, the survivor count (T/C endpoint: median survival time, dose: 20.0 mg/kg/injection, schedule: Q01DX001 (ip), vehicle: saline, higher T/C = longer survival) is reported as 4 of 6; the survivor count (T/C endpoint: median survival time, dose: 25.6 mg/kg/injection, schedule: Q01DX009 (ip), vehicle: saline, higher T/C = longer survival) was 2 of 10; the survivor count (T/C endpoint: median survival time, dose: 51.2 mg/kg/injection, schedule: Q01DX009 (ip), vehicle: saline, higher T/C = longer survival) is recorded as 0 of 10.

As for `O=C(O)CCC(=O)O`, the survivor count (T/C endpoint: median survival time, dose: 10.0 mg/kg/injection, schedule: Q01DX009 (ip), vehicle: water, higher T/C = longer survival) is reported as 10 of 10; the survivor count under setting [3] is given as 7 of 8; the survivor count (T/C endpoint: median survival time, dose: 320.0 mg/kg/injection, schedule: Q01DX009 (ip), vehicle: water, higher T/C = longer survival) is 0 of 10 and 7 of 10; the survivor count (T/C endpoint: median survival time, dose: 640.0 mg/kg/injection, schedule: Q01DX009 (ip), vehicle: water, higher T/C = longer survival) was 0 of 10 (2×). Also, the T/C by setting is: (T/C endpoint: median survival time, dose: 20.0 mg/kg/injection, schedule: Q01DX009 (ip), vehicle: water, higher T/C = longer survival) 133 and 137 % of control; (T/C endpoint: median survival time, dose: 80.0 mg/kg/injection, schedule: Q01DX009 (ip), vehicle: water, higher T/C = longer survival) 141 % of control; under setting [3], 133 % of control.

As for `C1CN1c1nc(N2CC2)nc(N2CC2)n1`, the T/C (T/C endpoint: median survival time, dose: 0.13 mg/kg/injection, schedule: Q01DX009 (ip), vehicle: saline with Tween-80, higher T/C = longer survival) was 137 % of control; the T/C under setting [4] is given as 96, 105, 107, 113 % of control; the T/C (T/C endpoint: median survival time, dose: 0.25 mg/kg/injection, schedule: Q01DX009 (ip), vehicle: saline with Tween-80, higher T/C = longer survival) is 127 % of control; the T/C under setting [5] is 95, 101, 111, 113, 123 % of control; the T/C (T/C endpoint: median survival time, dose: 0.5 mg/kg/injection, schedule: Q01DX009 (ip), vehicle: saline, higher T/C = longer survival) was 94, 98, 106, 110, 111, 125, 161 % of control; the T/C (T/C endpoint: median survival time, dose: 0.5 mg/kg/injection, schedule: Q08DX002 (ip), vehicle: saline, higher T/C = longer survival) is 93, 96, 98 (2×), 106, 109, 134 % of control. Also, the T/C reads like this: under setting [6], 86 and 92 % of control; under setting [7], 88, 92, 108, 109, 117, 126 % of control; under setting [8], 86, 112, 113, 115, 127 % of control (2×); under setting [9], 136 % of control; (T/C endpoint: median tumor weight (est.), dose: 4.0 mg/kg/injection, schedule: Q08DX002 (ip), vehicle: saline, evaluated on day 14, higher T/C = larger tumour) 142 % of control. The survivor count under setting [4] was 6 of 6; the survivor count under setting [5] was 5 of 6 and 6 of 6; the survivor count under setting [6] is 5 of 6 and 6 of 6; the survivor count (T/C endpoint: median survival time, dose: 1.0 mg/kg/injection, schedule: Q08DX002 (ip), vehicle: saline with Tween-80, higher T/C = longer survival) is 4 of 6; the survivor count under setting [7] is listed as 6 of 6; the survivor count under setting [8] is recorded as 6 of 6. Under setting [9], the survivor count is recorded as 2 of 6, 4 of 6, 5 of 6, 6 of 6.

On to `CO[C@H]1C[C@](C)(O)Cc2cc3c(c(O)c21)C(=O)c1c(O)cc2c(c1C3=O)O[C@@H]1O[C@@]2(C)[C@H](O)[C@@H](N(C)C)[C@@H]1O`, for which the survivor count was 6 of 6 (T/C endpoint: median survival time, dose: 1.56 mg/kg/injection, schedule: Q01DX009 (ip), vehicle: other, higher T/C = longer survival); 6 of 6 (T/C endpoint: median survival time, dose: 3.12 mg/kg/injection, schedule: Q01DX009 (ip), vehicle: other, higher T/C = longer survival); 6 of 6 (T/C endpoint: median survival time, dose: 6.25 mg/kg/injection, schedule: Q01DX009 (ip), vehicle: other, higher T/C = longer survival); 6 of 6 (T/C endpoint: median survival time, dose: 12.5 mg/kg/injection, schedule: Q01DX009 (ip), vehicle: other, higher T/C = longer survival); 10 of 10 (T/C endpoint: median survival time, dose: 25.0 mg/kg/injection, schedule: Q01DX009 (ip), vehicle: other, higher T/C = longer survival).

As to `Cc1cc(NC(=O)NCc2ccc(N3C(N)=NC(N)=NC3(C)C)cc2)ccc1S(=O)(=O)F`, the T/C by setting is: (T/C endpoint: median survival time, dose: 25.0 mg/kg/injection, schedule: Q04DX003 (ip), vehicle: saline, higher T/C = longer survival) 125 % of control; (T/C endpoint: median survival time, dose: 200.0 mg/kg/injection, schedule: Q04DX003 (ip), vehicle: saline, higher T/C = longer survival) 147 % of control. In addition, the survivor count (T/C endpoint: median survival time, dose: 400.0 mg/kg/injection, schedule: Q04DX003 (ip), vehicle: saline, higher T/C = longer survival) was 6 of 6.

Consider `O=NN(CCF)C(=O)N[C@H]1CCCC[C@H]1O`, for which, for the setting “T/C endpoint: median survival time, dose: 3.11 mg/kg/injection, schedule: Q01DX007 (ip), vehicle: water, higher T/C = longer survival”, the T/C was 126 % of control. In addition, under “T/C endpoint: median survival time, dose: 24.0 mg/kg/injection, schedule: Q01DX007 (ip), vehicle: water, higher T/C = longer survival”, the survivor count is on record as 1 of 10 on day 55.

With `O=[N+]([O-])c1ccc(/C=N/c2ncc(Br)s2)o1`, the T/C (T/C endpoint: median survival time, dose: 12.5 mg/kg/injection, schedule: Q01DX009 (ip), vehicle: Klucel (hydroxypropylcellulose) (HPC), higher T/C = longer survival) was 126 % of control. Under “T/C endpoint: median survival time, dose: 25.0 mg/kg/injection, schedule: Q01DX009 (ip), vehicle: Klucel (hydroxypropylcellulose) (HPC), higher T/C = longer survival”, the survivor count is reported as 5 of 10.

Take `COC1C(C)OC(OC2CC(C)(O)Cc3cc4c(c(O)c32)C(=O)c2c(O)cc3c(c2C4=O)OC2OC3(C)C(O)C(N(C)C)C2O)C(OC)C1(C)OC` (centres undefined): the survivor count is 9 of 10 (T/C endpoint: median survival time, dose: 5.0 mg/kg/injection, schedule: Q01DX009 (ip), vehicle: other, higher T/C = longer survival) and 9 of 10 (T/C endpoint: median survival time, dose: 10.0 mg/kg/injection, schedule: Q01DX009 (ip), vehicle: other, higher T/C = longer survival).

The values are drawn from PubChem BioAssay AID194 (DTP/NCI, 2004).
